Test results as given in PubChem BioAssay AID652054 (National Center for Advancing Translational Sciences (NCATS), 2013).
The whole screen tested about 360,000 compounds, of which about 9,100 (2.5%) were called active. The shares of active, inactive and inconclusive entries below differ from those in the screen. No stated cut-off is given here; in the data, active means max response below about -50%; inconclusive means no clear call, values can overlap the other calls; inactive means above that.

Amino acid sequences for entries named in this document (tags omitted).
UniProt P35462, whole entry, looked up: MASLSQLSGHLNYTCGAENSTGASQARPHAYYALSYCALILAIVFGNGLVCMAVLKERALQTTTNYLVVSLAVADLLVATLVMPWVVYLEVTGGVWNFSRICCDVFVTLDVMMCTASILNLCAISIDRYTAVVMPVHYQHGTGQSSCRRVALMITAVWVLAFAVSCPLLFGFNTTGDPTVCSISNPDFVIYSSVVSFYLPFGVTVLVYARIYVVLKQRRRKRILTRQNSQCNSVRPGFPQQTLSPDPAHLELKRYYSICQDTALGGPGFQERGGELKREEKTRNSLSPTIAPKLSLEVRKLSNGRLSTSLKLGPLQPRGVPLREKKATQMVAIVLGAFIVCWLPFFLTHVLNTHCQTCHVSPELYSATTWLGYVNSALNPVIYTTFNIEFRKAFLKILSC

Each molecule was assayed against D(3) dopamine receptor (Homo sapiens) (UniProt P35462) (assay: qHTS of D3 Dopamine Receptor Antagonist: qHTS). Conditions: D3R cells, DiscoveRx beta-arrestin luminescence, antagonist mode; stronger effect = lower value.
Summary of the method: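 Cells expressing the human receptor were seeded at 1500 cells/well, incubated overnight at 37 degrees C in 5% CO2, then exposed to library compounds with dopamine controls for 90 minutes at 37 degrees C before luminescent detection.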
On the % scale 0 is the no-effect control and ±100 the full control effect.

Compound	max response, negative = inhibition
CCN1C(=O)[C@H]2[C@@H](c3ccc(C(F)(F)F)cc3)N[C@]3(CCCN(Cc4ccc(OC)cc4)C3=O)[C@H]2C1=O	inactive: 16.3%
CC(=O)Nc1cccc(-c2csc(C(C)(O)c3cccc(F)c3)n2)c1 (configuration not stated)	inconclusive: -36.1%
O=C(O)c1cn(-c2ccccc2)nc1-c1ccc(Cl)cc1	active: -54.3%
Cc1cc(-c2ccc(C)c(S(=O)(=O)NCCCN3CCN(c4ccccc4)CC3)c2)on1	inconclusive: -31%
O=[N+]([O-])c1cccc(/C=N/N2CCN(Cc3ccccc3)CC2)c1	inactive: 4.29%
CCOC(=O)C(C)Sc1ncnc2c1nnn2-c1ccc(F)cc1 (configuration not stated)	inconclusive: -42.7%
Cc1ccc(-n2c(SCC(N)=O)nnc2-c2cccnc2)c(C)c1	inconclusive: -31.2%
CSC(=Nc1ccccc1)N=C(SCc1ccccc1)N(C)C	active: -84.4%
C#Cc1ccc(CN2CCC(Oc3ccc(C(=O)NCc4ccccn4)cc3)CC2)cc1	inconclusive: -38.4%
Fc1cccc(Cl)c1CNCCCSc1ncccn1	inconclusive: -37.7%
COc1ccccc1NC(=O)c1ccc2nc(N3C(=O)CCC3=O)sc2c1	inconclusive: -30.3%
Cc1cccc(-c2nnc3n2N=C(c2ccccc2)CS3)c1	inconclusive: -30.5%
O=c1[nH]cnc2c1C1(CCCC1)Cc1ccccc1-2	inactive: -7.51%
O=c1oc2ccc(NS(=O)(=O)c3cccc4cccnc34)cc2s1	inconclusive: -35%
N#CC1=C(N)NC(SCc2ccccc2)=C(C#N)C12CCCCC2	inactive: -17.4%
CN(C)Cc1c(C(=O)N/N=C/c2ccccc2OCc2c(F)cccc2Cl)nnn1-c1nonc1N	inconclusive: -41.4%
O=C(c1ccco1)N1CCN(CC2CC3C=CC2C3)CC1 (configuration not stated)	inconclusive: -46.4%
CC(C)n1c(NCc2cc(Cl)ccc2O)nc2ccccc21	inconclusive: -30.7%
CCCc1c2c(cc3c(=O)cc(C(=O)OCC)oc13)CCCC2	inactive: 19.2%
COc1cccc(C2CC(c3ccccc3Cl)Nc3ncnn32)c1 (configuration not stated)	inconclusive: -31.4%
O=C(NC1CCN(Cc2ccccc2)CC1)c1cccc(NS(=O)(=O)c2ccc(Br)cc2)c1	active: -109%
CCCCC1C(=O)N(c2ccccc2)N(c2ccc(O)cc2)C1=O (configuration not stated)	active: -74.3%

Compound	max response, negative = inhibition
CC(C)C1C(=O)N(Cc2cn(CCC3OCCO3)nn2)CCS(=O)(=O)N1Cc1ccc(-c2cccc(N(C)C)c2)cc1 (configuration not stated)	inconclusive: -35.9%
O=C(Nc1ccnn1C1CCN(Cc2ccc(F)cc2)CC1)C1CC1	inconclusive: -48.9%
O=C(CN1CCN(Cc2ccccc2Cl)CC1)N/N=C/C=C/c1ccccc1[N+](=O)[O-]	inconclusive: -31.7%
N#C/C(=N\Nc1ccc(S(=O)(=O)N2CCc3ccccc32)cc1)C(N)=S	inactive: -7.54%
O=C(C1CCCN(Cc2ccccc2)C1)N1CCc2ccccc2C1 (configuration not stated)	active: -88.7%
COc1ccc(Cl)cc1C(=O)Nc1ccccc1N1CCN(C)CC1	inconclusive: -34.9%
Cc1ccc(NC(=O)CN(C)C(=O)c2ccc(Cl)nc2)cc1	active: -83.7%
COC(=O)[C@]12C(=O)NC[C@H](CN1c1ccc(C(F)(F)F)cc1)N2C	inconclusive: -36.9%
CN(C(=O)c1cccc(NC(=O)Cc2cccc([N+](=O)[O-])c2)c1)C1CCCC1	active: -75.2%
CCOc1ccc(NC(=O)c2ccccc2NC(=O)CN(C)CC(=O)Nc2ccc(C)cc2)cc1	inconclusive: -31.1%
FC(F)Oc1ccccc1/C=N/Nc1nc2ccccc2o1	inconclusive: -38.5%
Cc1ccc(S(=O)(=O)N(C)CC(=O)N(C)CCOc2ccccc2)cc1	inconclusive: -33.4%
COc1ccc(C(=O)Cn2c(C)nc([N+](=O)[O-])c2Br)cc1	active: -55.7%
Nn1c(SC/C=C/c2ccccc2)nnc1-c1cccnc1	inconclusive: -47%
Cc1ccc(C(=O)COC(=O)c2cccc(NC(=O)c3ccc([N+](=O)[O-])cc3[N+](=O)[O-])c2)cc1	inconclusive: -44.7%
O=C(OC1CC2CC1[C@H]1CCCCN1C2=O)N1CCN(S(=O)(=O)c2ccccc2)CC1 (some centres not stated)	active: -53.2%
CN(C(=O)c1cccc(NC(=O)Cc2ccc(NC(=O)C3CCCN(S(=O)(=O)c4cccc([N+](=O)[O-])c4)C3)cc2)c1)C1CCC1 (configuration not stated)	inactive: -0.727%
CCOCCCNC(=O)C(c1ccc(Cl)cc1)N1CCC2(CC1)OCCO2 (configuration not stated)	active: -54.9%
O=C(CSc1nnc(-c2ccccc2)c(-c2ccccc2)n1)Nc1ncc(Cl)cc1Cl	inactive: -27%
O=C(COC(=O)/C=C/c1ccc([N+](=O)[O-])cc1)NC(=O)NC1CCCCC1	inconclusive: -37.9%
CCOc1ccc(NC(=S)NCc2nc3ccccc3[nH]2)cc1	inconclusive: -30.8%
CCOc1ccc(CN(C)CC(O)COC(c2ccc(OC)cc2)c2ccc(OC)cc2)cc1 (configuration not stated)	inactive: -27.7%

16 entries out of the list, arranged by length of the SMILES, rising.
Compound	max response, negative = inhibition
FC(F)Oc1ccccc1/C=N/Nc1nc2ccccc2o1	inconclusive: -38.5%
Nn1c(SC/C=C/c2ccccc2)nnc1-c1cccnc1	inconclusive: -47%
CC(C)n1c(NCc2cc(Cl)ccc2O)nc2ccccc21	inconclusive: -30.7%
O=C(O)c1cn(-c2ccccc2)nc1-c1ccc(Cl)cc1	active: -54.3%
COc1ccc(Cl)cc1C(=O)Nc1ccccc1N1CCN(C)CC1	inconclusive: -34.9%
N#CC1=C(N)NC(SCc2ccccc2)=C(C#N)C12CCCCC2	inactive: -17.4%
COc1ccccc1NC(=O)c1ccc2nc(N3C(=O)CCC3=O)sc2c1	inconclusive: -30.3%
CC(=O)Nc1cccc(-c2csc(C(C)(O)c3cccc(F)c3)n2)c1 (configuration not stated)	inconclusive: -36.1%
O=[N+]([O-])c1cccc(/C=N/N2CCN(Cc3ccccc3)CC2)c1	inactive: 4.29%
C#Cc1ccc(CN2CCC(Oc3ccc(C(=O)NCc4ccccn4)cc3)CC2)cc1	inconclusive: -38.4%
COC(=O)[C@]12C(=O)NC[C@H](CN1c1ccc(C(F)(F)F)cc1)N2C	inconclusive: -36.9%
CCOc1ccc(CN(C)CC(O)COC(c2ccc(OC)cc2)c2ccc(OC)cc2)cc1 (configuration not stated)	inactive: -27.7%
CN(C(=O)c1cccc(NC(=O)Cc2cccc([N+](=O)[O-])c2)c1)C1CCCC1	active: -75.2%
O=C(CN1CCN(Cc2ccccc2Cl)CC1)N/N=C/C=C/c1ccccc1[N+](=O)[O-]	inconclusive: -31.7%
Cc1ccc(C(=O)COC(=O)c2cccc(NC(=O)c3ccc([N+](=O)[O-])cc3[N+](=O)[O-])c2)cc1	inconclusive: -44.7%
CCN1C(=O)[C@H]2[C@@H](c3ccc(C(F)(F)F)cc3)N[C@]3(CCCN(Cc4ccc(OC)cc4)C3=O)[C@H]2C1=O	inactive: 16.3%

(more compounds)

Compound	max response, negative = inhibition
O=C1CS/C(=N\N=C\c2ccccc2Cl)N1CC1CC1	inconclusive: -31.5%
Cc1oc2c(c1C(=O)NCc1cccnc1)C(=O)c1ccccc1C2=O	active: -72.3%
CC(COc1cccc2ccccc12)CN1CCN(C)CC1 (configuration not stated)	inconclusive: -40%
Cc1ccc2nc(NCCc3ccc(Cl)cc3)c3nncn3c2c1	inactive: -22.8%
COc1cc(NS(=O)(=O)c2ccc(NC(=O)c3ccc([N+](=O)[O-])cc3)cc2)ncn1	inconclusive: -42.7%
Cc1cccnc1C(NC(=O)C1CCN(Cc2ccccc2)CC1)c1ccc(F)cc1 (configuration not stated)	active: -54.8%
COc1ccc(-c2cc(NC(C)=O)c3ncc(-c4cccc(C(C)=O)c4)n3c2)cc1OC	inactive: 55%
CCCOP(=O)(OCCC)C(Nc1cccc(C(F)(F)F)c1)c1ccc(C)cc1 (configuration not stated)	inactive: 5.7%
CCCCc1ccc(NC(=O)CN(C)CC(=O)Nc2ccccc2Cl)cc1	inactive: -2.53%
O=C(O)c1ccccc1Nc1ccc([N+](=O)[O-])cc1C(=O)O	inconclusive: -44.8%
CN(c1ccc(Cl)cc1)S(=O)(=O)c1nnc(NC(=O)c2ccco2)s1	active: -72.1%
CC1=NNC(=O)/C1=C\c1cn(-c2ccccc2)nc1-c1cccs1	inconclusive: -47.4%
COc1ccc(COC(=O)NNC(=O)c2ccc(OC)cc2)cc1	inconclusive: -43.7%
O=[N+]([O-])c1ccccc1/C=C/C=N/n1c(-c2ccc(Cl)cc2)n[nH]c1=S	inconclusive: -46.7%
Cc1ccccc1NS(=O)(=O)c1ccc(NC(=O)CSCc2ccc(Br)cc2)cc1	inconclusive: -31.4%
O=C(NC(c1ccccc1)c1ccccc1)C1(c2cccs2)CCOCC1	inactive: 22.5%
COc1ccnc(CSC(N)=Nc2ccccc2OC)c1	active: -75.1%
CCCOc1ccc(CNC(=O)CCC(=O)n2ncc3cc(C)ccc32)cc1	inconclusive: -35.4%
CCc1ccc(CN2CCCC(C(=O)N3CCCCC3)C2)cc1 (configuration not stated)	inconclusive: -30.1%
COC(=O)c1cc(COc2ccc3ccc(=O)oc3c2)c(C)o1	active: -67.7%
O=C(O)CC(Cn1[nH]nnc1=S)c1ccccc1 (configuration not stated)	inconclusive: -32.1%
COc1ccc(NC(=O)Nc2ccc(N(C)C)cc2)cc1	inconclusive: -34.3%

Compound	max response, negative = inhibition
Cc1ccc(C)c2[nH]c(=O)c(CN(CC3CCCO3)C(=O)NC3CCCCC3)cc12 (configuration not stated)	inactive: -8.53%
Cc1ccc(-c2nc(SCC(=O)Nc3cc(C)on3)c3c(=O)n(C)c(=O)n(C)c3n2)cc1	inactive: -17.3%
CCC(CC)C(=O)Nc1cccc(/C(C)=N/NC(=O)c2c(Br)cnn2C)c1	active: -51.3%
CCOc1ccccc1Nc1nc(N)nc(CN(C)C2CCCCC2)n1	inconclusive: -31.6%
Cc1ccccc1N=Nc1ccc(O)c2ncccc12	active: -117%
COc1ccc(-c2coc3c(C(=O)NCC4CCOCC4)cccc23)c(C)c1	inconclusive: -31.1%
CS(=O)(=O)N1CC(C(=O)NN)Oc2ccc(Cl)cc21 (configuration not stated)	inconclusive: -45.9%
CCc1nc(NC(C)(C)C)c2cnn(-c3ccccc3)c2n1	inactive: -6.27%
CCn1cc(C(=O)N[C@H](C(=O)NCCCn2ccnc2)C(C)C)c(=O)c2cc3c(cc21)OCO3	inactive: -6.69%
NC1=NC[C@@H](Cc2ccc(O)cc2)N1CCC12CC3CC(CC(C3)C1)C2	inconclusive: -48.5%
Cn1c(=O)c2c(nc(SCC(=O)NC34CC5CC(CC(C5)C3)C4)n2C)n(C)c1=O	inconclusive: -32.7%
CCCCNC(=O)C1(C)CCCCN1C(=O)c1cccc(OC(F)(F)F)c1 (configuration not stated)	inconclusive: -46.9%
COc1ccccc1N1CCN(C(=O)c2[nH]c(C(F)(F)F)nc2-c2ccccc2)CC1	inconclusive: -46.1%
CC(=O)Nc1ccc(NC(=O)CN2CCN(c3cccc(C(F)(F)F)c3)CC2)cc1	active: -79.5%
CCc1cccc(OCCCCNCCOC)c1	active: -67.3%
CC(C)[C@H](NC(=O)NCc1ccc(Cl)cc1)C(=O)O	inconclusive: -32.3%
Nc1nnc(CC(=O)N/N=C/c2ccc(-c3ccc(Cl)cc3Cl)o2)s1	inactive: -7.14%
Cc1cc(C)c2nc(NNC(=O)c3ccc(S(=O)(=O)N4CCCC(C)C4)cc3)sc2c1 (configuration not stated)	inactive: 10.3%
Cc1ccc(CNCc2cc(Cl)ccc2O)cc1	inconclusive: -39%
CC(C)(C)c1cc(CN2CCC(O)CC2)cc(C(C)(C)C)c1O	inconclusive: -48.7%
